Source: US20030134859A1 (SANKYO COMPANY, LIMITED, priority 2000, published 2003)
The name of at least one read-out is uncertain.

System: Balb/c mice
Test: Prevention of concanavalin A liver injury
Assay type: in vivo, mouse
Details: oral, 10 mg/mL suspension at 10 mL/kg, 30 min prior to Con A; plasma 24 hr after Con A
Procedure: Five (5) Balb/c mice (female, 6-8 weeks old) per group were used. Liver injury was elicited in the mouse by injection of concanavalin A (Con A) dissolved in saline (2.0 mg/mL) into the tail vein at a volume of 10 mL/kg of the solution (Hepatology, 21, 190-198 (1995)).
The test compounds were suspended in distilled water containing 0.5% CMC, at a concentration of 10 mg/mL. This suspended solution was orally administered to the mouse at a volume of 10 mL/kg, 30 min prior to injection of Con A (group A).
Apart from this group, distilled water containing 0.5% CMC powder, instead of the test compound, was orally administered in the second group of mice (group B). In the 3rd group, nothing was given to the mice (group C).
Twenty four (24) hr after the injection of Con A, blood was collected from the abdominal aorta of the mice and the plasma was isolated while mixing with heparin. Activities of glutamic acid oxaloacetic acid transaminase (AST) and glutamic acid pyruvic acid transaminase (ALT) in the plasma were determined according to the methods described by Nagakawa et al. (J. Pharmacol. Exp. Ther., 264, 496-500 (1993)). From the values obtained inhibitory rates of the test compound against AST and ALT levels which had been increased by injection of Con A, were obtained based on the following equation.
Inhibitory Rate(%)={1−[(A−C)/(B−C)]}×100
A: The average level of AST or ALT in the group A […]

**Q.** For `O=C(Nc1ccc(N2CCCCC2)cc1)c1cc([N+](=O)[O-])ccc1Cl` [Example 114, N-[4-(Piperidin-1-yl)phenyl]-(2-chloro-5-nitrophenyl)carboxamide], which “Preventing rate against liver injury, ALT (%)” value is on record?
**A.** Its value is 40.0%.

**Q.** What about the “Preventing rate against liver injury, AST (%)” value of the same molecule?
**A.** Its value is 47.0%.
